Measurements reported in PubChem BioAssay AID504786 (Drosophila RNAi Screening Center, 2011).
Purpose: 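Fly genes required for HIF-dependent transcription when hypoxia is mimicked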 (primary screen). Cell system: Drosophila S2 cells with a stable HIF luciferase reporter. Reagents: long dsRNA against Drosophila genes, about 0.2 µg dsRNA per well of a 384-well plate. Time to read-out: three days of knock-down, then 20 h of DFO before reading. Treatment: desferrioxamine (DFO) at 100 µM, an iron chelator that mimics hypoxia, for 20 h. Detection: 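Firefly luciferase driven by the mouse ldh-a hypoxia-response element, measured after 20 h of 100 µM DFO; z-scores per plate, higher means more signal lost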. Reading the numbers: z-score: higher = stronger loss of HIF reporter signal.
The deposit covers about 21,000 reagents; shown is a random part of those with a known target gene and a result. 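Primary screen; positive scores mean lost reporter signal, so the sign may be inverted from the usual convention.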 Further read-outs or replicates are left out here. Reagent sequences are not shown.

What is on record for Coq3 (Coenzyme Q3) [DRSC03168]?
z-score, replicate 1: -0.3

For sky (skywalker) [DRSC02383], what was measured?
z-score, replicate 1: -0.4

With sky (skywalker) [DRSC03214], how do the results read?
z-score, replicate 1: -0.5

With sky (skywalker) [DRSC03215], what does the deposit list?
z-score, replicate 1: -0.4

How did the screen score CG31198 [DRSC15891]?
z-score, replicate 1: -0.1

What is on record for Gdap2 [DRSC06789]?
z-score, replicate 1: -0.4

Which result is listed for Gdap2 [DRSC06790]?
z-score, replicate 1: -0.3

What is on record for CG18870 [DRSC04313]?
z-score, replicate 1: -0.3

Which result is listed for NAT1 [DRSC06854]?
z-score, replicate 1: -0.5

With CG5819 [DRSC04520], how do the results read?
z-score, replicate 1: -0.2

For CG12643 [DRSC17849], what was measured?
z-score, replicate 1: -0.2

How did the screen score CG3769 [DRSC02723]?
z-score, replicate 1: -0.3

With Cht2 (Chitinase 2) [DRSC08650], what was measured?
z-score, replicate 1: -0.1

Which result is listed for Spt5 [DRSC07556]?
z-score, replicate 1: 2.3

For jumu (jumeau) [DRSC16651], how do the results read?
z-score, replicate 1: 0.7

How did the screen score CG9568 [DRSC03265]?
z-score, replicate 1: -0.2

Not a retest: an excerpt of the list.
sky (skywalker) [DRSC03214] → z-score, replicate 1: -0.5
sky (skywalker) [DRSC03215] → z-score, replicate 1: -0.4
